Construct, isoform or probe ends are uncertain for at least one entry.
System: PpERF9
Assay: EMSA
Details: cold competitor 50-, 100-, 200-fold; LightShift Chemiluminescent EMSA Kit (Thermo Scientific); pH and temperature not stated; recombinant protein; protein details: His (pET32a); label: 3' biotin (hot probe), unlabeled as competitor

Sequence	binding result
GCTTGCCGTCTTTGTCGTCTCCGGCGCCGCCATCTACATCTGCTTCCAGGTTCAAC (double strand) [ProMYB114-probe]	binds
CCAGACCAAGACTAACTGGGAGTCCACCGACAGGTGCCGGTTGGAAAAGGACAGGTG (double strand) [ProRAP2.4-probe]	binds
